This is one part of the list.

Here are results for 42 sequences from publication PMC7819943, “Rice protein-binding microarrays: a tool to detect cis-acting elements near promoter regions in rice”.

This test deals with T1, OsSMF1 (Oryza sativa, UniProt Q6ZLB0 1-436).
T1 sequence: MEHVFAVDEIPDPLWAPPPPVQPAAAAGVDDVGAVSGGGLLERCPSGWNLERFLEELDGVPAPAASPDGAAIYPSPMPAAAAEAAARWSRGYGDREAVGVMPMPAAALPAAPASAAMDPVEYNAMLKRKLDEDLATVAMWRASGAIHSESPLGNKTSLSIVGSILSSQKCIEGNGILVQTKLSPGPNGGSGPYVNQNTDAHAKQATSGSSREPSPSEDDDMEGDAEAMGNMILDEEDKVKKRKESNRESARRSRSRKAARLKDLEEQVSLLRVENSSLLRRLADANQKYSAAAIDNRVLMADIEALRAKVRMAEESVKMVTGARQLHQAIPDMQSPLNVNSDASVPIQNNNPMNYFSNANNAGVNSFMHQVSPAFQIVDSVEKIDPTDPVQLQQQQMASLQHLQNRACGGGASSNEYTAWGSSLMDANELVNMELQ
In words: protein-binding microarray (RPBM); PBS, 2% BSA, 51.3 ng/ul salmon testes DNA, 50 uM zinc acetate, 200 nM TF, 25 C, 1 h; high values mean tight binding. To be noted: protein: recombinant; tags: N-terminal polyhistidine and DsRed monomer fusion (pET32a); chain copies: 2; label: CyDye5-dUTP incorporated in the synthesized complementary strand; 3' TTTTT single-stranded linker to array surface; dsDNA, one strand shown. A digest of the protocol:
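Binding signal is defined as the fluorescence intensity of each feature in arbitrary units, read on an Axon 4000B scanner. Transcription factors with N-terminal polyhistidine and DsRed fusions came from E. coli BL21-CodonPlus and were purified on Ni–NTA. They were incubated at 200 nM for 1 h at 25 °C on a custom Agilent array that had been made double-stranded with Cy5-dUTP, with 50 µM zinc acetate present, and the array was washed.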
For the sequence “TCGTCGTCGTCGTCGTCGTCGCGCGCCCCACGAACCCTATCGGAGTCACCTAGTGCAG”, the binding signal is 3230 fluorescence intensity (a.u.).

As to “AATGATCTTAATAACGTGACGTGACTCTTACAGTATGTAACGGAGTCACCTAGTGCAG”, the binding signal was 4880 fluorescence intensity (a.u.). Under “CTTCCTGTCTCACGATAGCACGCACTAGTCAGATTTTACGCGGAGTCACCTAGTGCAG” stands 3650 fluorescence intensity (a.u.); under “AGGTGGAGGCGCCGGTGTGGGTGGTGGAGCGGGAGGAGGTCGGAGTCACCTAGTGCAG”, 4096 fluorescence intensity (a.u.). In the case of “TCACACGGTTTTCGGTTGATGCCATGGTAACCGTCTTGCTCGGAGTCACCTAGTGCAG”, the binding signal is 3210 fluorescence intensity (a.u.). Under “CCCATCTCCGACTCGGATTACACGTAGGCGCGCGCCTATTCGGAGTCACCTAGTGCAG” stands 4800 fluorescence intensity (a.u.). For “CGCGTGCATTTGCATCGTCGTTGTGTCATGTCGTCAAGCTCGGAGTCACCTAGTGCAG” the value was 4500 fluorescence intensity (a.u.); for “CCAGACGAGATCCACGCAGCATGTTCCTCTCTATTTCTTTCGGAGTCACCTAGTGCAG”, 3820 fluorescence intensity (a.u.); for “GCAACAAACAAAATAACATAATATTATTCCGGACGTTATGCGGAGTCACCTAGTGCAG”, 3350 fluorescence intensity (a.u.). For “CCCCTACGCGCACAAGGGGTTGATGCGCACCCGCAAGAAGCGGAGTCACCTAGTGCAG” the value was 13700 fluorescence intensity (a.u.). On to “CCACGCCGCGATATGCACACGCAGCACACGCGCCGCCAGCCGGAGTCACCTAGTGCAG”, for which the binding signal is 3420 fluorescence intensity (a.u.). “ATATGCGGACGCGGCACGCGGCATATGCGTCGCTCCCGGCCGGAGTCACCTAGTGCAG”: the binding signal was 4010 fluorescence intensity (a.u.).

Turning to “TGTCAAAGAAGCTCACCTACCTACACATCAATTCAGTTTACGGAGTCACCTAGTGCAG”, the binding signal was 8000 fluorescence intensity (a.u.). For “CCCAGCCGCGTCGCTCACTGTTTTCCTCCACCGCCGCAGTCGGAGTCACCTAGTGCAG” the value was 3570 fluorescence intensity (a.u.); for “AAACTTATTTGGCCATGGTGTCATCGGGGTTGGCGTTTAGCGGAGTCACCTAGTGCAG”, 3860 fluorescence intensity (a.u.). Under “TCAACTAGTTAGTATGGGCACATTTATAGTAATCTCTAGCCGGAGTCACCTAGTGCAG” stands 3190 fluorescence intensity (a.u.); under “TCTATCCGGGTATATCCCACCAACCAATCACACCCCAAGCCGGAGTCACCTAGTGCAG”, 3420 fluorescence intensity (a.u.). For “AATCGGTTTGAAAGCTTGTGTGTGTCTACTAGATACCAGGCGGAGTCACCTAGTGCAG” the value was 3530 fluorescence intensity (a.u.); for “GAAGACGTTTAGGACAATGTTTAAGTCAAACCTTGGGAATCGGAGTCACCTAGTGCAG”, 9300 fluorescence intensity (a.u.); for “CGATAACAGCTTGCATTGCTTGTCATTTGAAAGATCAGCTCGGAGTCACCTAGTGCAG”, 3630 fluorescence intensity (a.u.). Consider “AGACAGCTGTTGCCTTTAGACTTTACAGCTGGGACTTTAACGGAGTCACCTAGTGCAG”, for which the binding signal is 3580 fluorescence intensity (a.u.).

As to “ATGTCCGGCCATCTCCTCAAGGTCACGCTTGCGTCCTCCCCGGAGTCACCTAGTGCAG”, the binding signal is 3190 fluorescence intensity (a.u.). Under “TAAACCGATACATAACACTTGATAAAAGTGACACGGCAGCCGGAGTCACCTAGTGCAG” stands 5430 fluorescence intensity (a.u.).

With “AGCCGTGCTGTGTCGTGTCGTGCACTCGTGCGTATGCCGTCGGAGTCACCTAGTGCAG”, the binding signal is 3520 fluorescence intensity (a.u.). Under “CTGGAGAGATGGCGTCGAGTACCAGCGACATCCCCGAGGGCGGAGTCACCTAGTGCAG” stands 16700 fluorescence intensity (a.u.); under “GAAGGATTAATGAATTAACCACGTGCGCAAAATCACACGTCGGAGTCACCTAGTGCAG”, 4550 fluorescence intensity (a.u.); under “AGCGTCGCGCCGCGCCACGCCACGCCACGCCACCCCACCACGGAGTCACCTAGTGCAG”, 5830 fluorescence intensity (a.u.).

On to “GGATCAAATTGCCACGTATGCGCCACGTCAATGCCACATCCGGAGTCACCTAGTGCAG”, for which the binding signal was 27400 fluorescence intensity (a.u.). For the sequence “ATTCCTATCATTGGAGTATGTGTGCACGTCATTAGTGCCACGGAGTCACCTAGTGCAG”, the binding signal is 6500 fluorescence intensity (a.u.). For “ACATTTGTTTTGCACGAAACGTGGCATTAAGAAATGAAGACGGAGTCACCTAGTGCAG” the value was 3230 fluorescence intensity (a.u.); for “GACCCTTGTGAGGGCACTATATATAGCCCTCCACCTCAGTCGGAGTCACCTAGTGCAG”, 26200 fluorescence intensity (a.u.); for “TCCCTCCGTGGACGTGGACTTGGTCCGGTCTTCCTTCCCTCGGAGTCACCTAGTGCAG”, 5660 fluorescence intensity (a.u.). For “AACAAACTGCCAGATAAATTACCCTTCTTCCAGCTCGGATCGGAGTCACCTAGTGCAG” the value was 3910 fluorescence intensity (a.u.); for “TCCCGCCCGCCACGCGATTCAAACGCCCTTCCCGTGGGCCCGGAGTCACCTAGTGCAG”, 3250 fluorescence intensity (a.u.); for “CATCCATCCATCCATCGCGGCGCATCGTACGGTCCAGAGCCGGAGTCACCTAGTGCAG”, 27000 fluorescence intensity (a.u.). On to “GGGTCGTGCCCATGCTTGGGCTGCACCCTTGGCACGGTGGCGGAGTCACCTAGTGCAG”, for which the binding signal is 3260 fluorescence intensity (a.u.). For “CTAAAGAAGAAACACAAAGAAACCAACTCCGACGACCACCCGGAGTCACCTAGTGCAG” the value was 3300 fluorescence intensity (a.u.); for “AAATCAGGAAATGAAAAGCTAGGGTTTTAGGTATTGTAATCGGAGTCACCTAGTGCAG”, 40800 fluorescence intensity (a.u.). Consider “GCTATGTTCAATTCACACTTGTTGAAATTTCTACCATGTACGGAGTCACCTAGTGCAG”, for which the binding signal is 3280 fluorescence intensity (a.u.). Regarding “TAGCAAATCGATTCTGCCACGTGTCTCACTCCTGCACACACGGAGTCACCTAGTGCAG”, the binding signal was 32600 fluorescence intensity (a.u.). For “TTGTTTATTTTATCAATTGACGTGTTCATGCAATCCACAACGGAGTCACCTAGTGCAG” the value was 3420 fluorescence intensity (a.u.). For the sequence “TGTTGCGCCGTCACTCGTAGACTACTCCATCTCGCTCGCCCGGAGTCACCTAGTGCAG”, the binding signal is 3670 fluorescence intensity (a.u.).
